# According to the supplement of paper PMC11732987, “Enantioselective OTUD7B fragment discovery through chemoproteomics screening and high-throughput optimisation” (Communications Chemistry, 2025):
# The chains behind the UniProt entries cited, without tags or fusion partners. Where a name states a change or a piece, a line headed by the entry shows the natural chain unless it says otherwise. Residues count along the entry.
# UniProt Q14676, 1726-1749: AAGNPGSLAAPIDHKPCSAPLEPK
# UniProt Q7L2J0: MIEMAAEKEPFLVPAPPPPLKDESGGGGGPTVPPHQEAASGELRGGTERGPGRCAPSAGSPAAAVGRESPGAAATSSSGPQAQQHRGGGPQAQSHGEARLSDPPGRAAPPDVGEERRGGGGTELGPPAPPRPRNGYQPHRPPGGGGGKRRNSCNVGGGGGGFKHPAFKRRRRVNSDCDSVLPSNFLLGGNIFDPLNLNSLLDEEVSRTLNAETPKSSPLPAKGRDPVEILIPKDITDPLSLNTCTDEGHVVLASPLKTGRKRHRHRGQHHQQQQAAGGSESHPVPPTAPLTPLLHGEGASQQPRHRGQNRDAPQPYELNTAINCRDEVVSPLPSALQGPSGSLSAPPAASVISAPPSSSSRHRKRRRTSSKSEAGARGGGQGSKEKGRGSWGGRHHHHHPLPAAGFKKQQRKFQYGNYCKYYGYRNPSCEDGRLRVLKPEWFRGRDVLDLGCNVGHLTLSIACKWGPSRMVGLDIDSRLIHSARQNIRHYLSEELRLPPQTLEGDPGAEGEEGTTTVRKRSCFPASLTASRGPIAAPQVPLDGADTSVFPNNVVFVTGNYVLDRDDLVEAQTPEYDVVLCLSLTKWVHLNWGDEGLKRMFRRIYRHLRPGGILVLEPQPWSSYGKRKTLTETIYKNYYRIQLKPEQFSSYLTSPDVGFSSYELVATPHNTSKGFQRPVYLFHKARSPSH
# UniProt Q9UBG0: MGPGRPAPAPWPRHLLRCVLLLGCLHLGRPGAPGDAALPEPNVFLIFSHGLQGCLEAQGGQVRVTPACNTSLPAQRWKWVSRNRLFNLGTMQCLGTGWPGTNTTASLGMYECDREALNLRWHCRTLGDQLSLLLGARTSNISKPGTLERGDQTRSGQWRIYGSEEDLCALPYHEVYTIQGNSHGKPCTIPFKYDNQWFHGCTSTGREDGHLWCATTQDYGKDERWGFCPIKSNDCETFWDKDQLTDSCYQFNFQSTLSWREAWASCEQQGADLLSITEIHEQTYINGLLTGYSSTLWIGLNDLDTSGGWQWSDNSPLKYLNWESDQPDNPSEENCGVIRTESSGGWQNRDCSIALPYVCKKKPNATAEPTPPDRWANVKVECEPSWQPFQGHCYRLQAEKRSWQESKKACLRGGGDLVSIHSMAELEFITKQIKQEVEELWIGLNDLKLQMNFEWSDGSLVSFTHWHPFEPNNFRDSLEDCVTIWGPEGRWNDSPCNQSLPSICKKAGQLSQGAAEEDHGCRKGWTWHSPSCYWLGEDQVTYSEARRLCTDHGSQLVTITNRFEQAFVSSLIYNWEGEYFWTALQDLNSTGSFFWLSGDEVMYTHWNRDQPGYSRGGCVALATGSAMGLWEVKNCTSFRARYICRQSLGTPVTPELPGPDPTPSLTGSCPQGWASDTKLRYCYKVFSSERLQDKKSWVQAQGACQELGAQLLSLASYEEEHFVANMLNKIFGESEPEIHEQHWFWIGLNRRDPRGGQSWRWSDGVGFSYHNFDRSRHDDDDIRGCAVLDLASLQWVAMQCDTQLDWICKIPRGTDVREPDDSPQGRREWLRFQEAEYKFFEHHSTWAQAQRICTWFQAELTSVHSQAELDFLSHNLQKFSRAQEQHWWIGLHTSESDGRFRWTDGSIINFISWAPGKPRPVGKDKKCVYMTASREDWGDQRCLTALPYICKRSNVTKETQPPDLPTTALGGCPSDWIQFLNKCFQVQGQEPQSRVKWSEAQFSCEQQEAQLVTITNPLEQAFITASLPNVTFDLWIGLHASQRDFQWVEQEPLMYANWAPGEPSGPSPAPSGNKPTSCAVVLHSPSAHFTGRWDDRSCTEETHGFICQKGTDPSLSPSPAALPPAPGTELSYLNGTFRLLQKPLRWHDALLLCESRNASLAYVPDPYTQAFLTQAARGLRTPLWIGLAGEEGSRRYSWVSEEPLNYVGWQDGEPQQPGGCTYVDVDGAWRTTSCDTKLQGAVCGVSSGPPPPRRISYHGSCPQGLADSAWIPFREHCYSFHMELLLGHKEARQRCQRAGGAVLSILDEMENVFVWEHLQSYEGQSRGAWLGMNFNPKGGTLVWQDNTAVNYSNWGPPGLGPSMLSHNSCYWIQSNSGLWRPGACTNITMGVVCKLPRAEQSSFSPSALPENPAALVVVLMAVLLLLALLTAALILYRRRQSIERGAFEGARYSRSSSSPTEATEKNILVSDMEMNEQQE
# UniProt Q8IWI9: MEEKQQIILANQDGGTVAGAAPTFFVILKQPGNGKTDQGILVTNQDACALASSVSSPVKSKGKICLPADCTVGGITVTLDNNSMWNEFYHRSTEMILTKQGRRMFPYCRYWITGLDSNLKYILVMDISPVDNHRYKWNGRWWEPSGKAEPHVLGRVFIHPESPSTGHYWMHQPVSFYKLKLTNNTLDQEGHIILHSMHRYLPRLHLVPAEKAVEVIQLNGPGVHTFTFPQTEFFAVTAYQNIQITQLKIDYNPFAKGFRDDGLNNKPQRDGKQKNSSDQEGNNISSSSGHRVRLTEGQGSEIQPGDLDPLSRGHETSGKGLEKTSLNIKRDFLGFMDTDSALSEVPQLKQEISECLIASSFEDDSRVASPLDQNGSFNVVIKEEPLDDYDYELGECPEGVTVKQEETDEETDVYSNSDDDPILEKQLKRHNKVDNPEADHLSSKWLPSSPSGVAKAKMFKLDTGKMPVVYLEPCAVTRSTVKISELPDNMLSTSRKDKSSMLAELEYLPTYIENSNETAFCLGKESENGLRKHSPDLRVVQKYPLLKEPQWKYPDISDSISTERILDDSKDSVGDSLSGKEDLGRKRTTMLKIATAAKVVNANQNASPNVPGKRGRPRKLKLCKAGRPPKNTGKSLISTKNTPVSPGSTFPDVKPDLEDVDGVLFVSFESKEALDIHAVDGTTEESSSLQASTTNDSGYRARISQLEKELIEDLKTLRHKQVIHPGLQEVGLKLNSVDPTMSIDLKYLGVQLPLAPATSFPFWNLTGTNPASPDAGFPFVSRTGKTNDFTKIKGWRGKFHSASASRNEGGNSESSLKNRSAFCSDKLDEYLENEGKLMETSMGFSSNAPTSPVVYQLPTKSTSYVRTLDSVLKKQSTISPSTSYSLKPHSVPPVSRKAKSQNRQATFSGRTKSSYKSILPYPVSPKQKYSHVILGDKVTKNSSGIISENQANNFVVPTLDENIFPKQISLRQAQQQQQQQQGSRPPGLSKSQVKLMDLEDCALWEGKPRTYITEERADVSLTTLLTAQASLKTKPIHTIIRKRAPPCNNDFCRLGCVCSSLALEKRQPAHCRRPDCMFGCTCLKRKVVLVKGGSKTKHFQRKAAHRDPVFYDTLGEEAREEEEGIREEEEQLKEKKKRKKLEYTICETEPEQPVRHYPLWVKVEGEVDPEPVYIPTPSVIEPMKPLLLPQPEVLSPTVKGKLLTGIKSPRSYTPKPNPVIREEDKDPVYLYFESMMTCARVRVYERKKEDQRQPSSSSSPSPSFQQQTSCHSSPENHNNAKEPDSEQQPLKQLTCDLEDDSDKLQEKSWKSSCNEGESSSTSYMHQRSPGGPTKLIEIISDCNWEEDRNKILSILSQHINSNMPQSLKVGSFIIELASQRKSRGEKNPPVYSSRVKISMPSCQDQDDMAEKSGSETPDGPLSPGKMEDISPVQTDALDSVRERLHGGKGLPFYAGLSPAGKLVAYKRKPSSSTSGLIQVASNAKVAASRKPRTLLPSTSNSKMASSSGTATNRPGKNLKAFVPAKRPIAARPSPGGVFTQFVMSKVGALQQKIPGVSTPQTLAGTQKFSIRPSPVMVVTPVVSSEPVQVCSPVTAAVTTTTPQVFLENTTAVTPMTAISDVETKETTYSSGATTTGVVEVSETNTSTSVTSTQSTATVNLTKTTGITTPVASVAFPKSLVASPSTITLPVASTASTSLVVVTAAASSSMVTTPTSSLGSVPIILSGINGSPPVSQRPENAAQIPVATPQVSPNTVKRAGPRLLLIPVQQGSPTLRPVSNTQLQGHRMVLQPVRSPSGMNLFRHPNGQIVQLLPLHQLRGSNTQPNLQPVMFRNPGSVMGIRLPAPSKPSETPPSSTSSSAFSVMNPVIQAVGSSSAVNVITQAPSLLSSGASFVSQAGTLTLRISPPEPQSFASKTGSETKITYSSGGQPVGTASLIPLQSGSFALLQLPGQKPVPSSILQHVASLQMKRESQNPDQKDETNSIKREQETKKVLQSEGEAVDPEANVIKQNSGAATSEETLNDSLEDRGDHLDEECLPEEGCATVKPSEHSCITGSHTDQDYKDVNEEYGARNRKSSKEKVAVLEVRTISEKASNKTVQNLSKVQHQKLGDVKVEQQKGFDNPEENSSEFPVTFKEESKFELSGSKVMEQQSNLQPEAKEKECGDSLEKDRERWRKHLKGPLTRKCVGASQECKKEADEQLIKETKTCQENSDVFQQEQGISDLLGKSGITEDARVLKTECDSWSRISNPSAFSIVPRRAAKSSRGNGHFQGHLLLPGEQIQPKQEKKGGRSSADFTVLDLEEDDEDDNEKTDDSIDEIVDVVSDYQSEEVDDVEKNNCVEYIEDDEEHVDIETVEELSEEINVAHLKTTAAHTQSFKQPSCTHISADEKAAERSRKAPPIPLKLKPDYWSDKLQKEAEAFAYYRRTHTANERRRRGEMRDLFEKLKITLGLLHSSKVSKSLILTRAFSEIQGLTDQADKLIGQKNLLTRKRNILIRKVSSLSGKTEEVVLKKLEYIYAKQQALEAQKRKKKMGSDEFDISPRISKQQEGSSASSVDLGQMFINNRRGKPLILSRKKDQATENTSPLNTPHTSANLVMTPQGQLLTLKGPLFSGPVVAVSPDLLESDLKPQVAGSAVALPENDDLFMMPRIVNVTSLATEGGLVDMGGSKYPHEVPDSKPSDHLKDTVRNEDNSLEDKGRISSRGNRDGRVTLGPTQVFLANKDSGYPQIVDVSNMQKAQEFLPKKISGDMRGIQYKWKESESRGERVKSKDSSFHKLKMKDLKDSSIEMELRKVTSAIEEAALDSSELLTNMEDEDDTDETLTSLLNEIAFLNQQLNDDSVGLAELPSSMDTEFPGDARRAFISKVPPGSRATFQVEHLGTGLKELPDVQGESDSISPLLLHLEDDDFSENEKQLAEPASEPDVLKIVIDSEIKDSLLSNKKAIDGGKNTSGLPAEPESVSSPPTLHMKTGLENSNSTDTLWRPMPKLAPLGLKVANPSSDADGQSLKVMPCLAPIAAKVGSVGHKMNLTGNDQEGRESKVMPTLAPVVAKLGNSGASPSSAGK
# UniProt Q14149: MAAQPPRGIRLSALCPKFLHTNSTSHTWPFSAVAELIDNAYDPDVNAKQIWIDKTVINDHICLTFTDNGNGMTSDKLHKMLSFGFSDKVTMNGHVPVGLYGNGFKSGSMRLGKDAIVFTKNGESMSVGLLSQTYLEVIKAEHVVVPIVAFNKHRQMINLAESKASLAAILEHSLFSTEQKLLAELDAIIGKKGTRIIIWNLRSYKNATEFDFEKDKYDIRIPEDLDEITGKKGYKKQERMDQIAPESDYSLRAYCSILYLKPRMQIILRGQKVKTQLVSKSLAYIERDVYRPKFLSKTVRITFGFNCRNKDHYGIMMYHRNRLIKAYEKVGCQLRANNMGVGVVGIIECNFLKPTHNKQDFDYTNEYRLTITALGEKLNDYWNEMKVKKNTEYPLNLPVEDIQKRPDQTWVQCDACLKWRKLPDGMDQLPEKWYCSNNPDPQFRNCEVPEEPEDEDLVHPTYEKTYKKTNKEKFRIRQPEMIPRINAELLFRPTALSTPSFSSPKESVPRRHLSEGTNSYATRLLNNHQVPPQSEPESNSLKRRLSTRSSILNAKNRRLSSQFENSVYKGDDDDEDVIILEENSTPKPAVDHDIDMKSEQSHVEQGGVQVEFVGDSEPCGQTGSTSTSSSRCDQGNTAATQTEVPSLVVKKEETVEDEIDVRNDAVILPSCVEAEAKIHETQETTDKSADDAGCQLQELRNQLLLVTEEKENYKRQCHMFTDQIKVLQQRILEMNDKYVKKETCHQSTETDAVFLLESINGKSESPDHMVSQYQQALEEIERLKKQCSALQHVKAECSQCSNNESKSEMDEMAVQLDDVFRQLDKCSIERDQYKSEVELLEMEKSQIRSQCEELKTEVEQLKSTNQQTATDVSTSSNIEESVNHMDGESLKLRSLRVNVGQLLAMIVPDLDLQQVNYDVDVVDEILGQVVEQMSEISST
# UniProt Q02078, 95-114: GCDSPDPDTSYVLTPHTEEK
# UniProt P21741: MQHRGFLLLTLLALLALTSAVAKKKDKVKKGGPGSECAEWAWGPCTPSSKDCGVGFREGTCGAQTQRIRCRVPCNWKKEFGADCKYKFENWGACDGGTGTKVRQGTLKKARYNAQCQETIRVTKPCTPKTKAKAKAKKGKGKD
# UniProt Q9NX70: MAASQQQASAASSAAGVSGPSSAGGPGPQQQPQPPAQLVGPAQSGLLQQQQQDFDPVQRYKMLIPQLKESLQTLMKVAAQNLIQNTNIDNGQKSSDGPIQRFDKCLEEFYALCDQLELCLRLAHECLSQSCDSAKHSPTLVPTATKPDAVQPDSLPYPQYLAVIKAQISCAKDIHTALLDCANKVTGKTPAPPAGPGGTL
# UniProt Q99550, 1052-1071: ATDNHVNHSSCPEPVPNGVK
# The other results are listed elsewhere or left out. The data scatter; read single values as rough.
# Columns and labels:
# [1] = compound: ClCC(=O)N[C@@H]1CCCc2ccccc12; assay: log2 mean competition ratio of IA-DTB cysteine labelling (DMSO/compound) (log2 ratio); higher = stronger cysteine engagement by compound; conditions: treatment time: 4 h, cell line lysate: HEK293T
# Experimental: (§1)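 IA-DTB competitive cysteine chemoproteomics in HEK293T RIPA lysate. Lysates were treated with compound 29 or 30 at 50 or 200 µM for 4 h, then IA-DTB (500 µM, 1 h), trypsin-digested, NeutrAvidin-enriched and analysed by diaPASEF. Competition ratio = intensity DMSO / intensity compound (n=4 treated, n=64 DMSO); binding: mean log2 CR ≥ 1 and p ≤ 0.05 plus QC filters. Target is the cysteine site.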
# [2] = compound: ClCC(=O)N[C@H]1CCCc2ccccc12; assay: as above; conditions: treatment time: 4 h, cell line lysate: HEK293T
# Experimental: as §1
Target,log2 mean competition ratio ([1]; 50 µM),log2 mean competition ratio ([1]; 200 µM),log2 mean competition ratio ([2]; 50 µM),log2 mean competition ratio ([2]; 200 µM)
MDC1 C26 (UniProt Q14676),-0.0894,-0.0727,0.106,0.00475
MIPEP C281 (UniProt Q99797),-0.08,0.102,-0.307,0.305
MET C1210 (UniProt P08581),-0.0984,0.241,0.0627,0.178
MEPCE C153 (UniProt Q7L2J0),0.236,-0.233,0.361,-0.204
MOCS2 C182,0.24,-0.0676,0.42,0.19
MEN1 C426 (UniProt O00255),-0.13,0.00292,0.0736,0.0743
MRE11 C336,0.145,-0.263,-0.175,-0.206
MRC2 C983 (UniProt Q9UBG0),-0.21,0.117,0.145,0.227
METTL7A C92 (UniProt Q9H8H3),0.104,-0.124,0.112,0.0156
MED23 C1319 (UniProt Q9ULK4),0.313,-0.318,-0.0669,-0.353
MGA C1313 (UniProt Q8IWI9),0.0886,0.208,-0.184,-0.0889
MRC2 C1234 (UniProt Q9UBG0),-0.147,0.415,0.0898,0.527
MKLN1 C582 (UniProt Q9UL63),0.24,-0.0891,0.682,-0.0188
MID2 C630,0.0768,-0.0127,0.0922,-0.0946
MOV10 C16 (UniProt Q9HCE1),-0.0133,-0.0612,0.0263,0.0556
MMS19 C599 (UniProt Q96T76),0.335,0.0574,0.511,-0.261
MOCS2 C10,-0.00443,-0.414,0.376,-0.364
MED12 C1287 (UniProt Q93074),0.0392,-0.172,0.044,0.0798
MOB3A C186 (UniProt Q96BX8),0.228,-0.2,-0.0105,-0.332
MORC3 C694 (UniProt Q14149),-0.104,0.135,-0.0238,0.0838
MED9 C75 (UniProt Q9NWA0),-0.239,-0.0934,0.00583,0.241
MEPCE C324 (UniProt Q7L2J0),0.00657,0.207,0.25,0.31
MFSD6 C743 (UniProt Q6ZSS7),-0.0114,0.0755,-0.0704,-0.0421
METTL8 C146 (UniProt Q9H825),-0.169,-0.0697,-0.29,-0.181

# Part of the list above, tab-delimited.
Target	log2 mean competition ratio ([1]; 50 µM)	log2 mean competition ratio ([1]; 200 µM)	log2 mean competition ratio ([2]; 50 µM)	log2 mean competition ratio ([2]; 200 µM)
MET C1210 (UniProt P08581)	-0.0984	0.241	0.0627	0.178
MEPCE C153 (UniProt Q7L2J0)	0.236	-0.233	0.361	-0.204
MOCS2 C182	0.24	-0.0676	0.42	0.19
MEN1 C426 (UniProt O00255)	-0.13	0.00292	0.0736	0.0743
MRE11 C336	0.145	-0.263	-0.175	-0.206
MRC2 C983 (UniProt Q9UBG0)	-0.21	0.117	0.145	0.227
METTL7A C92 (UniProt Q9H8H3)	0.104	-0.124	0.112	0.0156
MED23 C1319 (UniProt Q9ULK4)	0.313	-0.318	-0.0669	-0.353
MGA C1313 (UniProt Q8IWI9)	0.0886	0.208	-0.184	-0.0889
MRC2 C1234 (UniProt Q9UBG0)	-0.147	0.415	0.0898	0.527

# Carrying on.

Target,log2 mean competition ratio ([1]; 50 µM),log2 mean competition ratio ([1]; 200 µM),log2 mean competition ratio ([2]; 50 µM),log2 mean competition ratio ([2]; 200 µM)
MON2 C75 (UniProt Q7Z3U7),-0.0869,-0.225,-0.014,-0.196
MON2 C1453 (UniProt Q7Z3U7),0.245,0.0339,0.00706,0.163
MID1 C302 (UniProt O15344),-0.0613,-0.0451,0.294,0.0785
MED12 C1651 (UniProt Q93074),-0.0977,-0.0527,-0.2,-0.166
MEF2A C96 (UniProt Q02078),-0.34,0.372,-0.0962,0.124
MDC1 C1742 (UniProt Q14676),0.074,0.0204,0.157,-0.0554
MORC3 C851 (UniProt Q14149),0.0432,-0.00445,-0.474,0.289
"MIDEAS C16, A0A1C7CYX1",0.175,0.306,-0.0985,0.156
MKI67 C2206 (UniProt P46013),0.309,0.206,0.515,0.0528
MORC3 C307 (UniProt Q14149),0.166,0.0609,0.0935,0.0273
METTL17 C216 (UniProt Q9H7H0),-0.0173,-0.137,-0.0271,0.0196
MGA C2382 (UniProt Q8IWI9),-0.157,-0.125,-0.0669,0.243
MIS12 C104 (UniProt Q9H081),0.00705,-0.206,-0.486,-0.327
MIOS C576 (UniProt Q9NXC5),-0.137,-0.19,-0.259,0.0931
MED14 C621 (UniProt O60244),-0.126,-0.136,-0.155,-0.157
MOCS3 C412 (UniProt O95396),0.503,0.241,0.146,0.591
MDK C116 (UniProt P21741),0.26,0.138,0.213,0.354
MKLN1 C446 (UniProt Q9UL63),-0.238,0.019,-0.525,-0.175
MED20 C120 (UniProt Q9H944),0.711,0.339,-0.16,0.0865
MEPCE C429 (UniProt Q7L2J0),-0.065,0.228,-0.0446,0.195
MRC2 C1243 (UniProt Q9UBG0),-0.105,-0.0417,0.158,-0.101
MLLT1 C479 (UniProt Q03111),-0.24,0.117,-0.315,-0.00711
MED29 C181 (UniProt Q9NX70),-0.287,0.378,-0.334,0.428
MPHOSPH9 C910 (UniProt Q99550),0.1,0.0488,0.0581,-0.145
